From ChEMBL document CHEMBL3988442, “University of Dundee, Small-Polar-MMV Screening Library” (2021).

Protein sequences, listed by entry. Tags and fused reporters are not part of them. Residues count along the entry.
UniProt Q4DA54, 1-478: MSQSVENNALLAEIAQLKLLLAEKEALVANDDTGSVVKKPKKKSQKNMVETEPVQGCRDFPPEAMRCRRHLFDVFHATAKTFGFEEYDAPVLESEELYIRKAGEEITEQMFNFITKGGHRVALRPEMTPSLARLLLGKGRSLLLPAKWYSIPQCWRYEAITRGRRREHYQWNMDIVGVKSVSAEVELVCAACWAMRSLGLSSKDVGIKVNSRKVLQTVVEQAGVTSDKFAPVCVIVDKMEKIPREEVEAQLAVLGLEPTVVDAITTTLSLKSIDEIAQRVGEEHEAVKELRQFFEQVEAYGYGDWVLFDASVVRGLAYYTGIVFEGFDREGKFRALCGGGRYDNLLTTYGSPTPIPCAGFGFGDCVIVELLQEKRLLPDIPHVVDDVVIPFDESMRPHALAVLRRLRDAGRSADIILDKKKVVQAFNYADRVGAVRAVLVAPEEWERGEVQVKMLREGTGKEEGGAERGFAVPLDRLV
UniProt Q8IDJ8, 1-583: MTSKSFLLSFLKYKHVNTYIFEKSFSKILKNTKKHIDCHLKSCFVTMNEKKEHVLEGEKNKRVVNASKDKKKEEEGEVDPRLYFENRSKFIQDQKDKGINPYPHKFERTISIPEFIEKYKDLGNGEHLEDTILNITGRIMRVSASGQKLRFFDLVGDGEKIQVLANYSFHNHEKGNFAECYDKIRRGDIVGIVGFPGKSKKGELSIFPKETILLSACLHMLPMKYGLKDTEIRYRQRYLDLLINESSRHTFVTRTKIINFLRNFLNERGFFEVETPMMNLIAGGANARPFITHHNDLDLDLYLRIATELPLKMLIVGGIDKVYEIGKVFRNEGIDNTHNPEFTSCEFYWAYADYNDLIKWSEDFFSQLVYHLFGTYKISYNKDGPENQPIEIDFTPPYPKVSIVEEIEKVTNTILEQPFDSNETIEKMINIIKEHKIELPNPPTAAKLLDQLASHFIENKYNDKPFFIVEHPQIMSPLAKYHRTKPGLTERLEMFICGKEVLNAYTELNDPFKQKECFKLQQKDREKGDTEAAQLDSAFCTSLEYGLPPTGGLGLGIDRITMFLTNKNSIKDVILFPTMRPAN

TcHisRS: 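Histidine-tRNA ligase, Trypanosoma cruzi CL Brener (UniProt Q4DA54). Enzyme assay of histidyl-tRNA synthetase; the read-out is not stated. Tested at 30 µM. Higher reads as stronger inhibition (inferred: compounds with an IC50 in retests scored well above the rest). Size under these conditions: about 69,000 compounds, about 31 of them at 50% or above in at least one test.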
PfKRS1: 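Lysine-tRNA ligase, Plasmodium falciparum 3D7 (UniProt Q8IDJ8). Enzyme assay of the cytosolic lysyl-tRNA synthetase in 384-well plates, read by luminescence. Tested at 30 µM. Direction is inferred from only a few compounds that gave an IC50; most scored high, so higher reads as stronger inhibition. About 69,000 compounds were tested under these conditions; 0.071% (about 49) showed 50% or more at least once.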

Values are the deposited “Percent Effect”, in %.
The record does not define 0% and 100%; most values in the screen are far below 50% and negative numbers occur (in some assays of this library far below -100).
The compounds are a random part of those screened.

| SMILES | TcHisRS | PfKRS1 |
|---|---|---|
| `COc1ccccc1-c1ncc(CN2C[C@@H](N(C)C)[C@H](C(C)C)C2)s1` | 2.564 | 5.11 |
| `Cn1cc(CN2CCCC23CCN(C(=O)c2ccccc2)CC3)cn1` | 4.132 | 4.117 |
| `CC(Cn1cccn1)NC(=O)NCc1ccc(S(C)(=O)=O)cc1` (stereo not drawn) | 0.8746 | 1.138 |
| `CCS(=O)(=O)N1C[C@H]2CN(Cc3cccc(F)c3)C(=O)[C@H]2C1` | 2 | 6.176 |
| `Cc1nc(-c2cccc(N3CCC(N[C@@H]4CCOC4)CC3)c2)cs1` | 6 | 4.971 |
| `COc1ccc(C(=O)N2CCCC(n3cncn3)C2)nn1` (stereo not drawn) | -2.006 | -0.9505 |
| `COCc1noc(CC2CN(c3ncnc4sc(C)c(C)c34)CCO2)n1` (stereo not drawn) | 0 | 5.658 |
| `NS(=O)(=O)c1ccc(N2CCN(CCCc3cn[nH]c3)CC2)cc1` | 6.878 | -1.805 |
| `COc1ncc(C2(O)CCN(Cc3ccccc3O)CC2)c(OC)n1` | 1.075 | -0.6992 |
| `O=C(NCCC1=CCCCC1)c1ccc(-n2cccc2)nc1` | 2.273 | 4.925 |
| `O=C1CC2(CCCCN2C(=O)c2ccco2)CN1c1cccnc1` (stereo not drawn) | 5.473 | -5.122 |
| `CCOc1cncc(N2CCOCC2)n1` | 3.333 | -3.983 |
| `O=C1O[C@@H]2CN(Cc3cc4ccccc4s3)C[C@@H]2N1Cc1ccccn1` | 7.065 | 1.776 |
| `Cc1ccc(NC(=O)c2coc(C)n2)c(C)c1` | 0.5525 | 2.71 |
| `Cc1n[nH]c(C)c1C1COCCN1c1ncnc2sccc12` (stereo not drawn) | 8.333 | 4.277 |
| `O=C1CN(Cc2cn(CC3CCN(C4CCSCC4)CC3)nn2)CCN1` | 5.455 | 4.315 |
| `Cc1cccc(N(CCC(N)=O)CC(=O)Nc2cc(Cl)ccc2Cl)c1` | 9.877 | 3.088 |
| `Cc1nc(NCCN2CCCC2=O)cc(C2CN(C(C)C)CCO2)n1` (stereo not drawn) | 2 | -1.29 |
| `Cn1nc(CN2CCCC2)c2c1CN(C(=O)c1cccnc1)CC2` | 1.093 | -1.565 |
| `CC(C)c1ncc(CN2CCC(c3n[nH]cc3C(=O)N(C)C)C2)cn1` (stereo not drawn) | 8.462 | 5.463 |
| `Cc1cc(C(=O)N2CCc3[nH]cnc3C2C(=O)O)c(-c2ccccc2)o1` (stereo not drawn) | -1.117 | 2.38 |
| `O=c1ccc(-c2ccccc2F)nn1CN1CCCCCC1` | 7 | -3.002 |
| `NC(=O)c1cc2c(nc1Oc1cccc(CN3CCCC3)c1F)CCC2` | -53.65 | 7.553 |
| `c1cncc(OC[C@@]23CCO[C@@H]2CCN(Cc2cccs2)C3)c1` | 5.521 | 2.257 |
| `CCC(CNC(=O)c1c(C)nn(C)c1OC)Oc1ccccc1` (stereo not drawn) | -0.5435 | 0.1244 |
| `CCc1nc(C)cc(NC(C)C(=O)Nc2cc(F)ccc2C)n1` (stereo not drawn) | 9.524 | 1.938 |
| `CCCN(CCN(C)C)C(=O)Cc1cn2ccsc2n1` | 5.882 | 1.865 |
| `CC(=O)N1CCCC1c1nccc(C)n1` (stereo not drawn) | 1.639 | 2.181 |
| `OCCOCc1nnn2c1CN(c1ncccn1)CCC2` | -7.362 | 1.835 |
| `c1ccc(C(Cn2cnnc2)N2CCOCC2)nc1` (stereo not drawn) | 2.89 | 2.452 |
| `N#CCc1ccc(OCC(=O)N2CCCC(n3cccn3)C2)cc1` (stereo not drawn) | 6.723 | 22.88 |
| `Cc1cc(N2C[C@H](C3CC3)[C@@H](N)C2)nc(N2CCCCC2)n1` | 18.07 | 0.7029 |
| `COCCn1ccc(NCc2cc3cc(F)ccc3o2)n1` | 8.911 | 3.363 |
| `Cc1oc(-c2nc(C#N)c(N(C)C)o2)cc1S(=O)(=O)N1CCCCCC1` | -27.49 | 2.715 |
| `CC(C)N1CCCCC1c1cc(CO)[nH]n1` (stereo not drawn) | 6.818 | 1.11 |
| `Cc1ccc(C(=O)N2CCC(Oc3c(C)cccc3C)CC2)c(=O)[nH]1` | 3.55 | 0.2436 |
| `O=S(=O)(CC1CCCCO1)Nc1c(F)cccc1-n1cccn1` (stereo not drawn) | 3.333 | 6.527 |
| `CCC1CN(C(=O)c2ccc(O)c(C)c2)CCN1C(C)C` (stereo not drawn) | 3.96 | 6.041 |
| `CCOCCCn1c(NC(=O)c2cnc(C)s2)nc2ccccc21` | 8 | -0.08299 |
| `CS(=O)(=O)NC[C@@H]1OC[C@H]2CN(C(=O)c3cnccn3)CC[C@H]21` | 6.863 | 5.206 |
| `C[S+]([O-])c1cccc(NC(=O)N[C@H](CCO)c2ccccc2)c1` (stereo partly drawn) | 3.478 | 6.004 |
| `CC1=C(C#N)C(=O)NC(=O)/C1=C\c1c(C)nn(-c2ccc(C)cc2)c1O` | 11.56 | 10.03 |
| `CC(=O)N1CCCC1c1ccc(CN2CCOCC2)cn1` (stereo not drawn) | 1.149 | -3.901 |
| `COCC(=O)N1CCC2(CC1)CC(COC)N(Cc1ccccn1)C2` (stereo not drawn) | 4.42 | 7.456 |
| `COCCC1(CNC(=O)Nc2ccc(-n3nccn3)cc2)CCC1` | 1.754 | 5.5 |
| `N#CC1(C(=O)N2CCN(Cc3cscn3)CC2)CCCCC1` | 2.924 | 0.09227 |